Experimental data from PMC8511950.
These are yes or no findings as the source states them, for the method shown. In cells and extracts the contact can be indirect. These calls come from enrichment with a bait or labelling near it, and not all partners need be listed.

The chains behind the UniProt entries cited, without tags or fusion partners.
UniProt P16370: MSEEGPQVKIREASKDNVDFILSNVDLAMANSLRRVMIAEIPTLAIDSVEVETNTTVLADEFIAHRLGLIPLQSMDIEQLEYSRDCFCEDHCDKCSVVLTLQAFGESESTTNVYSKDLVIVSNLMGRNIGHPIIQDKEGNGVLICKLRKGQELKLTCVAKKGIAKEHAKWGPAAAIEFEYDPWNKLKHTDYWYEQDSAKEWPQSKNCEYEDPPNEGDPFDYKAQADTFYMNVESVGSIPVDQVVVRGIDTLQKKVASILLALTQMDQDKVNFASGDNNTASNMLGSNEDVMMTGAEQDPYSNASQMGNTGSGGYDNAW

B1: Erg27 (protein, UniProt Q12452 1-347)
chain: MNRKVAIVTGTNSNLGLNIVFRLIETEDTNVRLTIVVTSRTLPRVQEVINQIKDFYNKSGRVEDLEIDFDYLLVDFTNMVSVLNAYYDINKKYRAINYLFVNAAQGIFDGIDWIGAVKEVFTNPLEAVTNPTYKIQLVGVKSKDDMGLIFQANVFGPYYFISKILPQLTRGKAYIVWISSIMSDPKYLSLNDIELLKTNASYEGSKRLVDLLHLATYKDLKKLGINQYVVQPGIFTSHSFSEYLNFFTYFGMLCLFYLARLLGSPWHNIDGYKAANAPVYVTRLANPNFEKQDVKYGSATSRDGMPYIKTQEIDPTGMSDVFAYIQKKKLEWDEKLKDQIVETRTPI
B2: Sub2 (protein, UniProt Q07478 1-446)
chain: MSHEGEEDLLEYSDNEQEIQIDASKAAEAGETGAATSATEGDNNNNTAAGDKKGSYVGIHSTGFKDFLLKPELSRAIIDCGFEHPSEVQQHTIPQSIHGTDVLCQAKSGLGKTAVFVLSTLQQLDPVPGEVAVVVICNARELAYQIRNEYLRFSKYMPDVKTAVFYGGTPISKDAELLKNKDTAPHIVVATPGRLKALVREKYIDLSHVKNFVIDECDKVLEELDMRRDVQEIFRATPRDKQVMMFSATLSQEIRPICRRFLQNPLEIFVDDEAKLTLHGLQQYYIKLEEREKNRKLAQLLDDLEFNQVIIFVKSTTRANELTKLLNASNFPAITVHGHMKQEERIARYKAFKDFEKRICVSTDVFGRGIDIERINLAINYDLTNEADQYLHRVGRAGRFGTKGLAISFVSSKEDEEVLAKIQERFDVKIAEFPEEGIDPSTYLNN
B3: Gbp2 (protein, UniProt P25555 1-427)
chain: MERELGMYGNDRSRSRSPVRRRLSDDRDRYDDYNDSSSNNGNGSRRQRRDRGSRFNDRYDQSYGGSRYHDDRNWPPRRGGRGRGGSRSFRGGRGGGRGRTLGPIVERDLERQFDATKRNFENSIFVRNLTFDCTPEDLKELFGTVGEVVEADIITSKGHHRGMGTVEFTKNESVQDAISKFDGALFMDRKLMVRQDNPPPEAAKEFSKKATREEIDNGFEVFIINLPYSMNWQSLKDMFKECGHVLRADVELDFNGFSRGFGSVIYPTEDEMIRAIDTFNGMEVEGRVLEVREGRFNKRKNNDRYNQRREDLEDTRGTEPGLAQDAAVHIDETAAKFTEGVNPGGDRNCFIYCSNLPFSTARSDLFDLFGPIGKINNAELKPQENGQPTGVAVVEYENLVDADFCIQKLNNYNYGGCSLQISYARRD
B4: Erb1 (protein, UniProt Q04660 1-807)
chain: MMAKNNKTTEAKMSKKRAASEESDVEEDEDKLLSVDGLIDAEASESDEDDDEYESAVEEKESSSDKEAQDDSDDDSDAELNKLLAEEEGDGEEDYDSSEFSDDTTSLTDRLSGVKLQTIVDPNIYSKYADGSDRIIKPEINPVYDSDDSDAETQNTIGNIPLSAYDEMPHIGYDINGKRIMRPAKGSALDQLLDSIELPEGWTGLLDKNSGSSLNLTKEELELISKIQRNEQTDDSINPYEPLIDWFTRHEEVMPLTAVPEPKRRFVPSKNEAKRVMKIVRAIREGRIIPPKKLKEMKEKEKIENYQYDLWGDSTETNDHVMHLRAPKLPPPTNEESYNPPEEYLLSPEEKEAWENTEYSERERNFIPQKYSALRKVPGYGESIRERFERSLDLYLAPRVRKNKLNIDPNSLIPELPSPKDLRPFPIRCSTIYAGHKGKVRTLSIDPSGLWLATGSDDGTVRVWEILTGREVYRTTLIDDEENPDYHIECIEWNPDANNGILAVAVGENIHLIVPPIFGYDIENNGKTKIEDGFGYDTFGTVKKSNLEVNENGDGDEDGENESAKNAVKKQVAQWNKPSQKQLEKDICITISCKKTVKKLSWHRKGDYFVTVQPDSGNTSVLIHQVSKHLTQSPFKKSKGIIMDAKFHPFKPQLFVCSQRYVRIYDLSQQILVKKLLPGARWLSKIDIHPRGDNLIASSFDKRVLWHDLDLASTPYKTLRYHEKAVRSVNFHKKLPLFSSAADDGTIHVFHATVYDDMMKNPMIVPLKKLTGHKVINSLGVLDAIWHPREAWLFSAGADNTARLWTT
B5: Nug1 (protein, UniProt P40010 1-520)
chain: MRVRKRQSRRTSTKLKEGIKKKASAHRKKEKKMAKKDVTWRSRSKKDPGIPSNFPYKAKILEEIEAKKMKDLEERELAKQQRLEARKAAKEQGVDAMDEDMIEDDENGLAALVESAQQAAAEYEGTPSNDADVRDDELDVIDYNIDFYGEDVEGESELEKSRKAYDKIFKSVIDASDVILYVLDARDPESTRSRKVEEAVLQSQGKRLILILNKVDLIPPHVLEQWLNYLKSSFPTIPLRASSGAVNGTSFNRKLSQTTTASALLESLKTYSNNSNLKRSIVVGVIGYPNVGKSSVINALLARRGGQSKACPVGNEAGVTTSLREIKIDNKLKILDSPGICFPSENKKRSKVEHEAELALLNALPAKHIVDPYPAVLMLVKRLAKSDEMTESFKKLYEIPPIPANDADTFTKHFLIHVARKRGRLGKGGIPNLASAGLSVLNDWRDGKILGWVLPNTSAAASQQDKQNLSTINTGTKQAPIAANESTIVSEWSKEFDLDGLFSSLDKAIDASKDQDTMME
B6: Spt6 (protein, UniProt P23615 1-1451)
chain: MEETGDSKLVPRDEEEIVNDNDETKAPSEEEEGEDVFDSSEEDEDIDEDEDEARKVQEGFIVNDDDENEDPGTSISKKRRKHKRREREEDDRLSEDDLDLLMENAGVERTKASSSSGKFKRLKRVGDEGNAAESESDNVAASRQDSTSKLEDFFSEDEEEEESGLRNGRNNEYGRDEEDHENRNRTADKGGILDELDDFIEDDEFSDEDDETRQRRIQEKKLLREQSIKQPTQITGLSSDKIDEMYDIFGDGHDYDWALEIENEELENGNDNNEAEEEEIDEETGAIKSTKKKISLQDIYDLEDLKKNLMTEGDMKIRKTDIPERYQELRAGITDYGNMSSEDQELERNWIAEKISVDKNFDANYDLTEFKEAIGNAIKFITKENLEVPFIYAYRRNYISSREKDGFLLTEDDLWDIVSLDIEFHSLVNKKDYVQRFYAELHIDDPIVTEYFKNQNTASIAELNSLQDIYDYLEFKYANEINEMFINHTGKTGKKHLKNSSYEKFKASPLYQAVSDIGISAEDVGENISSQHQIHPPVDHPSSKPVEVIESILNANSGDLQVFTSNTKLAIDTVQKYYSLELSKNTKIREKVRSDFSKYYLADVVLTAKGKKEIQKGSLYEDIKYAINRTPMHFRRDPDVFLKMVEAESLNLLSVKLHMSSQAQYIEHLFQIALETTNTSDIAIEWNNFRKLAFNQAMDKIFQDISQEVKDNLTKNCQKLVAKTVRHKFMTKLDQAPFIPNVRDPKIPKILSLTCGQGRFGADAIIAVYVNRKGDFIRDYKIVDNPFDKTNPEKFEDTLDNIIQSCQPNAIGINGPNPKTQKFYKRLQEVLHKKQIVDSRGHTIPIIYVEDEVAIRYQNSERAAQEFPNKPPLVKYCIALARYMHSPLLEYANLTSEEVRSLSIHPHQNLLSSEQLSWALETAFVDIVNLVSVEVNKATDNNYYASALKYISGFGKRKAIDFLQSLQRLNEPLLARQQLITHNILHKTIFMNSAGFLYISWNEKRQKYEDLEHDQLDSTRIHPEDYHLATKVAADALEYDPDTIAEKEEQGTMSEFIELLREDPDRRAKLESLNLESYAEELEKNTGLRKLNNLNTIVLELLDGFEELRNDFHPLQGDEIFQSLTGESEKTFFKGSIIPVRVERFWHNDIICTTNSEVECVVNAQRHAGAQLRRPANEIYEIGKTYPAKVIYIDYANITAEVSLLDHDVKQQYVPISYSKDPSIWDLKQELEDAEEERKLMMAEARAKRTHRVINHPYYFPFNGRQAEDYLRSKERGEFVIRQSSRGDDHLVITWKLDKDLFQHIDIQELEKENPLALGKVLIVDNQKYNDLDQIIVEYLQNKVRLLNEMTSSEKFKSGTKKDVVKFIEDYSRVNPNKSVYYFSLNHDNPGWFYLMFKINANSKLYTWNVKLTNTGYFLVNYNYPSVIQLCNGFKTLLKSNSSKNRMNNYR
B7: Nop6 (protein, UniProt Q07623 1-225)
chain: MGSEEDKKLTKKQLKAQQFRKSKEEKDQEKDVKKEQAPEGKRPNSAAGNDGEEPVKKKRKTRRGRGGKGKNGKKGNRFIVFVGSLPRDITAVELQNHFKNSSPDQIRLRADKGIAFLEFDADKDRTGIQRRMDIALLQHGTLLKEKKINVELTVGGGGNSQERLEKLKNKNIKLDEERKERLTKMINDGNQKKIAKTTATAAQTSGTDNKPVPAGIHPDRAKLLK
B8: Hpm1 (protein, UniProt P40481 1-377)
chain: MSFSFGFTSNDFDDDELVAQPETFVESSKENENTTAYINPLDSDFLSQAGVVQPNVEDLGTILESLKDVRLTFEEFQSPIYRKPLIKRELFDVKHQLMLETDAQSNNNSTELDILLGDTSEDLRKNIYEGGLKSWECSYDLVDLLSENVDRISNDIDAVVEIGCGTALPSEFLFRSALLRNDRSKGLKFVLTDYNASVLRLVTIPNLVITWAKTVLTKEQWYALQKDECEDIPINNEELLLTSKLLAAFYDDVQSRNISVTLISGSWGRKFSNLIHEVLSGSQKVLSLSSETIYQPDNLPVIAETILDIHNLPQTDVKTYVAAKDIYFGVGGSITEFEAYLDDKINSEHLPIHSERFKVNSGLKRSIICIETNKAIR
B9: Nog1 (protein, UniProt Q02892 1-647)
chain: MQLSWKDIPTVAPANDLLDIVLNRTQRKTPTVIRPGFKITRIRAFYMRKVKYTGEGFVEKFEDILKGFPNINDVHPFHRDLMDTLYEKNHYKISLAAISRAKSLVEQVARDYVRLLKFGQSLFQCKQLKRAALGRMATIVKKLRDPLAYLEQVRQHIGRLPSIDPNTRTLLICGYPNVGKSSFLRCITKSDVDVQPYAFTTKSLYVGHFDYKYLRFQAIDTPGILDRPTEEMNNIEMQSIYAIAHLRSCVLYFMDLSEQCGFTIEAQVKLFHSIKPLFANKSVMVVINKTDIIRPEDLDEERAQLLESVKEVPGVEIMTSSCQLEENVMEVRNKACEKLLASRIENKLKSQSRINNVLNKIHVAQPQARDDVKRTPFIPESVKNLKKYDPEDPNRRKLARDIEAENGGAGVFNVNLKDKYLLEDDEWKNDIMPEILDGKNVYDFLDPEIAAKLQALEEEEEKLENEGFYNSDDEEEIYDGFEASEVDDIKEKAAWIRNRQKTMIAEARNRKSLKNKAIMPRSKLTKSFGKMEEHMSTLGHDMSALQDKQNRAARKNRYVERGSDVVFGDQDALTASTENGVKLRQTDRLLDGVADGSMRSKADRMAKMERRERNRHAKQGESDRHNAVSLSKHLFSGKRGVGKTDFR
B10: Hrp1 (protein, UniProt Q99383 1-534)
chain: MSSDEEDFNDIYGDDKPTTTEEVKKEEEQNKAGSGTSQLDQLAALQALSSSLNKLNNPNSNNSSSNNSNQDTSSSKQDGTANDKEGSNEDTKNEKKQESATSANANANASSAGPSGLPWEQLQQTMSQFQQPSSQSPPQQQVTQTKEERSKADLSKESCKMFIGGLNWDTTEDNLREYFGKYGTVTDLKIMKDPATGRSRGFGFLSFEKPSSVDEVVKTQHILDGKVIDPKRAIPRDEQDKTGKIFVGGIGPDVRPKEFEEFFSQWGTIIDAQLMLDKDTGQSRGFGFVTYDSADAVDRVCQNKFIDFKDRKIEIKRAEPRHMQQKSSNNGGNNGGNNMNRRGGNFGNQGDFNQMYQNPMMGGYNPMMNPQAMTDYYQKMQEYYQQMQKQTGMDYTQMYQQQMQQMAMMMPGFAMPPNAMTLNQPQQDSNATQGSPAPSDSDNNKSNDVQTIGNTSNTDSGSPPLNLPNGPKGPSQYNDDHNSGYGYNRDRGDRDRNDRDRDYNHRSGGNHRRNGRGGRGGYNRRNNGYHPYNR

molecular target: Rpb3 with C-terminal BioTAP tag (S. cerevisiae) (UniProt P16370); experiment: affinity purification with mass spectrometry; BioTAP-XL two-step purification of Rpb3-BioTAP (IgG beads, then streptavidin agarose) from 1% formaldehyde-cross-linked wildtype and spt6-1004 cells shifted to 37 °C for 80 min; on-bead trypsin digestion, TMT labelling, MS3 quantification; untagged wildtype and spt6-1004 cells as controls; FDR cutoff 0.05

binding | Binder
binds | B1
binds | B2
binds | B3
binds | B4
binds | B5
binds | B6
binds | B7
binds | B8
binds | B9
binds | B10
